Values as published with doi:10.1371/journal.pone.0140310, rounded.

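Human melanoma cells were exposed to a pair of drugs for 72 h in 1,536-well plates and read by automated microscopy after fixing and staining. Values are the number of DAPI-stained nuclei as a percentage of the DMSO control: 100 is no effect, lower means fewer cells. Every drug was used at one fixed concentration, the lower of two screened (a fifth of the higher). No replicate spread is given; individual values may be noisy.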 An unselected part of the screen is shown. An entry leaves out what has no value listed here. A dash means that no value is listed here.

Drugs:
AS-252424, 1 µM: O=C1NC(=O)/C(=C/c2ccc(-c3ccc(F)cc3O)o2)S1
CX-4945, 0.4 µM: O=C(O)c1ccc2c(c1)nc(Nc1cccc(Cl)c1)c1ccncc12
SU6656, 0.4 µM: CN(C)S(=O)(=O)c1ccc2c(c1)/C(=C/c1cc3c([nH]1)CCCC3)C(=O)N2
BI-D1870, 0.2 µM: CC(C)CCN1c2nc(Nc3cc(F)c(O)c(F)c3)ncc2N(C)C(=O)C1C (centres unmarked)
everolimus, 0.02 µM: CO[C@H]1C[C@@H]2CC[C@@H](C)[C@@](O)(O2)C(=O)C(=O)N2CCCC[C@H]2C(=O)O[C@H]([C@H](C)C[C@@H]2CC[C@@H](OCCO)[C@H](OC)C2)CC(=O)[C@H](C)/C=C(\C)[C@@H](O)[C@@H](OC)C(=O)[C@H](C)C[C@H](C)/C=C/C=C/C=C/1C
IMD-0354, 0.016 µM: O=C(Nc1cc(C(F)(F)F)cc(C(F)(F)F)c1)c1cc(Cl)ccc1O
Src-I1, 2 µM: COc1cc2ncnc(Nc3ccc(Oc4ccccc4)cc3)c2cc1OC
FH535, 1 µM: Cc1cc([N+](=O)[O-])ccc1NS(=O)(=O)c1cc(Cl)ccc1Cl
STA-4783, 0.006 µM: CN(NC(=O)CC(=O)NN(C)C(=S)c1ccccc1)C(=S)c1ccccc1
palbociclib, 0.04 µM: CC(=O)c1c(C)c2cnc(Nc3ccc(N4CCNCC4)cn3)nc2n(C2CCCC2)c1=O
MK-1775, 0.02 µM: C=CCn1c(=O)c2cnc(Nc3ccc(N4CCN(C)CC4)cc3)nc2n1-c1cccc(C(C)(C)O)n1
crizotinib, 0.2 µM: C[C@@H](Oc1cc(-c2cnn(C3CCNCC3)c2)cnc1N)c1c(Cl)ccc(F)c1Cl
enzastaurin, 0.8 µM: Cn1cc(C2=C(c3cn(C4CCN(Cc5ccccn5)CC4)c4ccccc34)C(=O)NC2=O)c2ccccc21
tipifarnib, 0.01 µM: Cn1cncc1[C@@](N)(c1ccc(Cl)cc1)c1ccc2c(c1)c(-c1cccc(Cl)c1)cc(=O)n2C
RKI-983, 0.4 µM: C[C@@H](N)c1ccc(C(=O)Nc2ccnc3[nH]ccc23)cc1
dasatinib, 0.004 µM: Cc1nc(Nc2ncc(C(=O)Nc3c(C)cccc3Cl)s2)cc(N2CCN(CCO)CC2)n1
ZM336372, 2 µM: Cc1ccc(NC(=O)c2cccc(N(C)C)c2)cc1NC(=O)c1ccc(O)cc1
GW441756, 0.4 µM: Cn1cc(/C=C2\C(=O)Nc3cccnc32)c2ccccc21

For RKI-983 and tipifarnib the values were A101D: 79.1. With palbociclib and tipifarnib the screen read A101D: 63.8; IST-MEL1: 72.6; LOX IMVI: 75.3; COLO 829: 68.0. Results for enzastaurin and ZM336372 are A101D: 87.6. tipifarnib and GW441756 gave A101D: 96.3; IST-MEL1: 99.4; LOX IMVI: 108; COLO 829: 91.3. Results for IMD-0354 and dasatinib are IST-MEL1: 85.9; LOX IMVI: 44.7; COLO 829: 85.9. With AS-252424 and MK-1775 the screen read IST-MEL1: 96.6; LOX IMVI: 85.0; COLO 829: 112.

Results for CX-4945 and tipifarnib are A101D: 99.3. BI-D1870 and Src-I1 gave A101D: 84.1. For STA-4783 and crizotinib the values were A101D: 82.3. enzastaurin and everolimus gave A101D: 82.1. With FH535 and GW441756 the screen read A101D: 84.7; WM1745: 91.3; WM3619: 79.1. With BI-D1870 and GW441756 the screen read A101D: 96.1; WM1745: 97.1; WM3619: 104.

For IMD-0354 and SU6656 the values were A101D: 81.3.

The last 2 entries again:

Pair	A101D	IST-MEL1	WM1745	LOX IMVI	WM3619	COLO 829
BI-D1870 and GW441756	96.1	-	97.1	-	104	-
IMD-0354 and SU6656	81.3	-	-	-	-	-